Here are results for one sequence from paper PMC5996148.

Test systems include Erythropoietin (human); FABP3 (human); FAM102A (human); FAM106B (human); FAM120B (human).
Assay in all cases: protein microarray (ProtoArray v5.0), streptavidin-Alexa Fluor 647
Common to all, as to conditions: 3'-biotin; 20 mM Tris (pH 7.5), 5 mM MgCl2, 100 mM KCl, 0.1% Tween-20, A/T-rich and random oligonucleotide blockers; temperature not stated; high values mean tight binding

Test [1] has as its system Elongation factor 1-gamma (human).
The subject of test [2] is Enhancer of yellow 2 transcription factor homolog (human).
In test [3] the test system is Eukaryotic translation initiation factor 3 subunit E (human).
The subject of test [4] is Exocyst complex component 3 (human).
Test [5] deals with FACT complex subunit SPT16 (human).

The other results are listed elsewhere or left out.

With “GGGGACAGGGGTATGGGGAGGGG [G4-3 biotinylated (CtG)]”, the binding signal in [1] was -0.338 z-score; in test [2] it was -0.33 z-score; in the test on Erythropoietin (human) it was -0.337 z-score; in test [3] it was -0.322 z-score; in test [4], -0.341 z-score; in the test on FABP3 (human), -0.334 z-score. For the same sequence, the binding signal in test [5] is 6.59 z-score; with FAM102A (human), -0.311 z-score; in the test on FAM106B (human), -0.331 z-score; in the test with FAM120B (human) it was -0.298 z-score.
